Source: PubChem BioAssay AID463205 (Broad Institute, 2010)
Hit rate of the full screen: of about 2,400 compounds, about 20 (0.8%) were called active.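 The calls were made as follows: active = AC50 no more than ten times the highest tested concentration, or full inhibition at every dose giving a flat fit (cut at about 30 µM in these data); inconclusive = flat fit with activity between 30% and 70%, or poor-quality invalid fit; inactive = AC50 more than ten times the top tested dose.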 Some of the results follow.

assay: inhibitors of ADP-Glo detection reagents, dose response, artefact control for GSK-3a inhibitor project, biochemical, luminescence, cell-free, homogeneous (AID 463205); conditions: 5 uM ADP;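 also: kinase-free counter-screen against the ADP-Glo detection reagents only; potency is for inhibitors that reduce the luminescence signal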

AC50, inactive:
CCOC(=O)N1CCc2c(sc3[nH]c(=S)[nH]c(=S)c23)C1 > 30 µM
O=C(O)C1CCCC[C@H]1C(=O)Nc1ncc([N+](=O)[O-])s1 (stereo partly specified) > 30 µM
Cc1nc(SCC(=O)NCC2CCCO2)c2c(C)c(C)sc2n1 (stereo unspecified) > 30 µM
COCCCNc1ncnc2nc[nH]c12 > 30 µM
CCOc1ccc(N=C2NC(=O)SC2CC(=O)OC)cc1 (stereo unspecified) > 30 µM
N#Cc1c2c(c(NCc3ccco3)n3c1nc1ccccc13)CCC2 > 30 µM
Cc1cccc(N=c2oc3cc(O)ccc3cc2C(N)=O)c1 > 30 µM
CCOC(=O)N1CCC(N2CCN(S(=O)(=O)c3ccc(Cl)cc3)CC2)CC1 > 30 µM
COc1ccc(Br)cc1C1CC(=O)N2CN(Cc3ccccc3)CSC2=C1C#N (stereo unspecified) > 30 µM
Fc1ccc(/C=N/Nc2cc(N3CCOCC3)ncn2)cc1 > 30 µM
CCOC(=O)c1cccc(NC(=O)C2CCCN2S(=O)(=O)c2cccc3cccnc23)c1 (stereo unspecified) > 30 µM
Cc1ccc(N=Nc2c(O)[nH]c3ccc(F)cc23)cc1 > 30 µM
CC(C)(C)OC(=O)N1CCC(NC(=O)c2nc[nH]c2C(=O)NC2CCN(C(=O)OC(C)(C)C)CC2)CC1 > 30 µM
O=C1NC(=Nc2ccccc2)S/C1=C\c1cccs1 > 30 µM
CC(C(=O)Nc1nccs1)c1ccc([N+](=O)[O-])cc1 (stereo unspecified) > 30 µM
Cc1ccc(S(=O)(=O)Nc2ccc(O)c3ncccc23)cc1 > 30 µM
CCOC(=O)C1=C(O)/C(=C\c2sccc2C)N=C1C > 30 µM
N#CC1=C(N)Oc2n[nH]c(-c3cccnc3)c2C1c1cc(F)ccc1F (stereo unspecified) > 30 µM
CCC(=O)c1ccc(OCC(O)CN2CCCCC2)cc1 (stereo unspecified) > 30 µM
Cc1nccnc1Sc1ccccc1 > 30 µM
CS(=O)(=O)Nc1ccc(-c2cc(/C=C3\SC(N)=NC3=O)c[nH]c2=O)cc1 > 30 µM
Cc1sc2ncnc(NCc3cccs3)c2c1C > 30 µM
CCOc1ccc(N2C(=O)C3C(c4ccccc4F)NN(C(=O)c4ccc(C)cc4)C3C2=O)cc1 (stereo unspecified) > 30 µM
Cc1ccc(-c2nc3c(c(=O)[nH]c(=O)n3CC(C)C)n2CC(C)C)cc1[N+](=O)[O-] > 30 µM
Oc1[nH]c2ccc(Br)cc2c1N=Nc1nn[nH]n1 > 30 µM
COc1cccc(C2CC(=O)N3CN(c4ccccc4F)CSC3=C2C#N)c1 (stereo unspecified) > 30 µM

3 structures out of the list, arranged by formula weight, falling.
AC50, inactive:
CCOC(=O)N1CCC(N2CCN(S(=O)(=O)c3ccc(Cl)cc3)CC2)CC1 > 30 µM
Cc1nc(SCC(=O)NCC2CCCO2)c2c(C)c(C)sc2n1 (stereo unspecified) > 30 µM
Cc1ccc(N=Nc2c(O)[nH]c3ccc(F)cc23)cc1 > 30 µM
